Test results reported in patent US20250282752A1, “Quinazoline Derivative Salt Crystal Form, Preparation Method and Application” (WEISHANG (SHANGHAI) BIO-PHARMACEUTICAL CO., LTD., priority 2018, published 2025).
Where a name gives a salt, the structure may show the parent alone. Some entries share one result that the patent states for a list of compounds.

Experiments:
[1] = Equilibrium solubility in water; format: physicochemical; conditions: room temperature, 24 hours
Protocol: Experimental method: Weigh about 10 mg of solid sample (free base and various salt forms and crystal forms), add 1.5 mL of water, and after equilibrate at room temperature for 24 hours, take out 0.3 mL of turbid solution, and centrifuge to separate the lower solid and supernatant. After the supernatant was filtered through a 0.45 μm (PTFE) filter, the concentration of free alkali was tested.

[2] = Rat pharmacokinetic study; format: in vivo; conditions: rats; intravenous 1-2 mg/kg, oral 2-40 mg/kg
Protocol: In the rat pharmacokinetic study, a group of rats (three rats) were injected intravenously with 1-2 mg/kg, and the second group of rats (three rats) were orally administered 2-40 mg/kg at 7 time points (0.25, 0.5, 1, 2, 4, 8, 16 hours) of the quinazoline derivative (I) of the present invention. Take blood to measure the concentration of the quinazoline derivative (I) of the present invention in the blood, and calculate the peak area and half-life. The calculation method of bioavailability is: (peak area of drug oral/oral dose)/(peak area of drug intravenous injection/intravenous dose)×100%.

C#Cc1cccc(Nc2ncnc3cc(OC)c(O[C@@H]4CCN(C)CC4(F)F)cc23)c1F [sulfate crystal form A, (R)-6-[(3,3-difluoro-1-methylpiperidin-4-yl)oxy]-N-(3-Ethynyl-2-fluorophenyl)-7-methoxyquinazolin-4-amine]
equilibrium solubility in water [1]: >50 µg/mL

C#Cc1cccc(Nc2ncnc3cc(OC)c(O[C@@H]4CCN(C)CC4(F)F)cc23)c1F [Hydrochloride crystal form I, (R)-6-[(3,3-difluoro-1-methylpiperidin-4-yl)oxy]-N-(3-Ethynyl-2-fluorophenyl)-7-methoxyquinazolin-4-amine]
equilibrium solubility in water [1]: >50 µg/mL | equilibrium solubility in water ([1]; listed as hydrochloride crystal form I): > 500 µg/mL | bioavailability [2]: > 60%

C#Cc1cccc(Nc2ncnc3cc(OC)c(O[C@@H]4CCN(C)CC4(F)F)cc23)c1F [oxalate crystal form A, (R)-6-[(3,3-difluoro-1-methylpiperidin-4-yl)oxy]-N-(3-Ethynyl-2-fluorophenyl)-7-methoxyquinazolin-4-amine]
equilibrium solubility in water [1]: >50 µg/mL

C#Cc1cccc(Nc2ncnc3cc(OC)c(O[C@@H]4CCN(C)CC4(F)F)cc23)c1F [besylate crystal form C, (R)-6-[(3,3-difluoro-1-methylpiperidin-4-yl)oxy]-N-(3-Ethynyl-2-fluorophenyl)-7-methoxyquinazolin-4-amine]
equilibrium solubility in water [1]: >50 µg/mL

C#Cc1cccc(Nc2ncnc3cc(OC)c(O[C@@H]4CCN(C)CC4(F)F)cc23)c1F [benzoate crystal form A, (R)-6-[(3,3-difluoro-1-methylpiperidin-4-yl)oxy]-N-(3-Ethynyl-2-fluorophenyl)-7-methoxyquinazolin-4-amine]
equilibrium solubility in water [1]: >50 µg/mL

C#Cc1cccc(Nc2ncnc3cc(OC)c(O[C@@H]4CCN(C)CC4(F)F)cc23)c1F [Hydrochloride crystal form A, (R)-6-[(3,3-difluoro-1-methylpiperidin-4-yl)oxy]-N-(3-Ethynyl-2-fluorophenyl)-7-methoxyquinazolin-4-amine]
equilibrium solubility in water [1]: >50 µg/mL | equilibrium solubility in water ([1]; listed as hydrochloride crystal form A): > 500 µg/mL

C#Cc1cccc(Nc2ncnc3cc(OC)c(O[C@@H]4CCN(C)CC4(F)F)cc23)c1F [Hydrochloride crystal form C, (R)-6-[(3,3-difluoro-1-methylpiperidin-4-yl)oxy]-N-(3-Ethynyl-2-fluorophenyl)-7-methoxyquinazolin-4-amine]
equilibrium solubility in water [1]: >50 µg/mL

C#Cc1cccc(Nc2ncnc3cc(OC)c(O[C@@H]4CCN(C)CC4(F)F)cc23)c1F [besylate crystal form A, (R)-6-[(3,3-difluoro-1-methylpiperidin-4-yl)oxy]-N-(3-Ethynyl-2-fluorophenyl)-7-methoxyquinazolin-4-amine]
equilibrium solubility in water [1]: >50 µg/mL

C#Cc1cccc(Nc2ncnc3cc(OC)c(O[C@@H]4CCN(C)CC4(F)F)cc23)c1F [Hydrochloride crystal form B, (R)-6-[(3,3-difluoro-1-methylpiperidin-4-yl)oxy]-N-(3-Ethynyl-2-fluorophenyl)-7-methoxyquinazolin-4-amine]
equilibrium solubility in water [1]: >50 µg/mL | equilibrium solubility in water ([1]; listed as hydrochloride crystal form B): > 500 µg/mL

C#Cc1cccc(Nc2ncnc3cc(OC)c(O[C@@H]4CCN(C)CC4(F)F)cc23)c1F [glycolate crystal form A, (R)-6-[(3,3-difluoro-1-methylpiperidin-4-yl)oxy]-N-(3-Ethynyl-2-fluorophenyl)-7-methoxyquinazolin-4-amine]
equilibrium solubility in water [1]: >50 µg/mL

C#Cc1cccc(Nc2ncnc3cc(OC)c(O[C@@H]4CCN(C)CC4(F)F)cc23)c1F [succinate crystal form A, (R)-6-[(3,3-difluoro-1-methylpiperidin-4-yl)oxy]-N-(3-Ethynyl-2-fluorophenyl)-7-methoxyquinazolin-4-amine]
equilibrium solubility in water [1]: >50 µg/mL

C#Cc1cccc(Nc2ncnc3cc(OC)c(O[C@@H]4CCN(C)CC4(F)F)cc23)c1F [adipate crystal form A, (R)-6-[(3,3-difluoro-1-methylpiperidin-4-yl)oxy]-N-(3-Ethynyl-2-fluorophenyl)-7-methoxyquinazolin-4-amine]
equilibrium solubility in water [1]: >50 µg/mL

C#Cc1cccc(Nc2ncnc3cc(OC)c(O[C@@H]4CCN(C)CC4(F)F)cc23)c1F [maleate crystal form A, (R)-6-[(3,3-difluoro-1-methylpiperidin-4-yl)oxy]-N-(3-Ethynyl-2-fluorophenyl)-7-methoxyquinazolin-4-amine]
equilibrium solubility in water [1]: >50 µg/mL

C#Cc1cccc(Nc2ncnc3cc(OC)c(O[C@@H]4CCN(C)CC4(F)F)cc23)c1F [Hydrochloride crystal form D, (R)-6-[(3,3-difluoro-1-methylpiperidin-4-yl)oxy]-N-(3-Ethynyl-2-fluorophenyl)-7-methoxyquinazolin-4-amine]
equilibrium solubility in water [1]: >50 µg/mL

C#Cc1cccc(Nc2ncnc3cc(OC)c(O[C@@H]4CCN(C)CC4(F)F)cc23)c1F [Hydrochloride crystal form F, (R)-6-[(3,3-difluoro-1-methylpiperidin-4-yl)oxy]-N-(3-Ethynyl-2-fluorophenyl)-7-methoxyquinazolin-4-amine]
equilibrium solubility in water [1]: >50 µg/mL

C#Cc1cccc(Nc2ncnc3cc(OC)c(O[C@@H]4CCN(C)CC4(F)F)cc23)c1F [malate crystal form A, (R)-6-[(3,3-difluoro-1-methylpiperidin-4-yl)oxy]-N-(3-Ethynyl-2-fluorophenyl)-7-methoxyquinazolin-4-amine]
equilibrium solubility in water [1]: >50 µg/mL

C#Cc1cccc(Nc2ncnc3cc(OC)c(O[C@@H]4CCN(C)CC4(F)F)cc23)c1F [Hydrochloride crystal form H, (R)-6-[(3,3-difluoro-1-methylpiperidin-4-yl)oxy]-N-(3-Ethynyl-2-fluorophenyl)-7-methoxyquinazolin-4-amine]
equilibrium solubility in water [1]: >50 µg/mL | equilibrium solubility in water ([1]; listed as hydrochloride crystal form H): > 500 µg/mL | bioavailability [2]: > 60%

C#Cc1cccc(Nc2ncnc3cc(OC)c(O[C@@H]4CCN(C)CC4(F)F)cc23)c1F [hippurate crystal form A, (R)-6-[(3,3-difluoro-1-methylpiperidin-4-yl)oxy]-N-(3-Ethynyl-2-fluorophenyl)-7-methoxyquinazolin-4-amine]
equilibrium solubility in water [1]: >50 µg/mL

C#Cc1cccc(Nc2ncnc3cc(OC)c(O[C@@H]4CCN(C)CC4(F)F)cc23)c1F [besylate crystal form B, (R)-6-[(3,3-difluoro-1-methylpiperidin-4-yl)oxy]-N-(3-Ethynyl-2-fluorophenyl)-7-methoxyquinazolin-4-amine]
equilibrium solubility in water [1]: >50 µg/mL
